According to patent US20120189544A1, “GASTROINTESTINAL DISEASE OR DISORDER IMAGING AND TREATMENT” (SALK INSTITUTE FOR BIOLOGICAL STUDIES, priority 2009, published 2012):
At least one structure is not confirmed: it was looked up by name or label, or the drawing left a doubt.

Legend:
[1] = test system: tuberous sclerosis (TSC) and lymphangioleiomyomatosis (LAM) patients; settings: phase II, continuous therapy, regression of angiomyoliomas; cited from earlier work
[2] = test system: Ampkα1/α2^−/− fibroblasts; test: HIF-1α and targets in AMPK-deficient MEFs, immunoblot; assay type: cell-based, mouse; settings: 50 nM rapamycin 24 hours
[3] = test system: PTEN-deficient glioblastomas and metastatic renal cell carcinomas; settings: patients with PTEN-deficient glioblastomas and metastatic renal cell carcinomas; cited from earlier work
[4] = test system: GI polyps in Lkb1^+/− mice; test: FDG PET analysis of Lkb1+/- mice; assay type: in vivo, mouse; settings: rapamycin for 4 weeks
HIF-1α = HIF-1α and HIF-1α targets in polyps, western blot and immunohistochemistry; assay type: in vivo, mouse
[5] = test system: Ki67 positive epithelial cells of Lkb1^+/− polyps; test: Ki67 proliferation marker staining of polyps; assay type: in vivo, mouse; settings: rapamycin-treated vs vehicle-treated polyps
[6] = test system: pre-existing GI polyps in Lkb1^+/− mice; settings: 9 month old, two months of rapamycin
Lkb1^−/− MEFs = test: HIF-1α and targets in Lkb1-deficient MEFs, immunoblot; assay type: cell-based, mouse; settings: normoxic, 50 nM rapamycin 24 hours
[7] = test system: cleaved caspase-3 protein; test: Apoptosis in polyps by cleaved caspase-3 (immunohistochemistry or immunoblotting); assay type: in vivo, mouse; settings: polyps from treated Lkb1+/− mice

With `CO[C@H]1C[C@@H]2CC[C@@H](C)[C@@](O)(O2)C(=O)C(=O)N2CCCC[C@H]2C(=O)O[C@H]([C@H](C)C[C@@H]2CC[C@@H](O)[C@H](OC)C2)CC(=O)[C@H](C)/C=C(\C)[C@@H](O)[C@@H](OC)C(=O)[C@H](C)C[C@H](C)/C=C/C=C/C=C/1C` [Sirolimus] as the compound, how does the clinical response [1] read?
Its clinical response is “partial responses”.

With `CO[C@H]1C[C@@H]2CC[C@@H](C)[C@@](O)(O2)C(=O)C(=O)N2CCCC[C@H]2C(=O)O[C@H]([C@H](C)C[C@@H]2CC[C@@H](O)[C@H](OC)C2)CC(=O)[C@H](C)/C=C(\C)[C@@H](O)[C@@H](OC)C(=O)[C@H](C)C[C@H](C)/C=C/C=C/C=C/1C` [rapamycin] as the compound, how does the “expression of HIF-1α and its targets” value [2] read?
The value was “reduced their expression”.

And the clinical outcome [3]?
Its clinical outcome is “palliative success”.

What about the “FDG-PET signal in GI tract” value [4] of the same compound?
The value was “abolished the FDG-PET signal”.

And the “GI polyps at autopsy after FDG-PET imaging” value ([4]; vehicle-treated had large GI polyps)?
The value was “minimal detectable GI polyps”.

What about the “HIF-1α and Glut1 protein expression in epithelial cells of polyps” value (HIF-1α; immunohistochemistry, LKB1+/− polyps) of the same compound?
Its value is “diminished with rapamycin treatment”.

What about the “HIF-1α protein levels in polyps” value (HIF-1α; western blot, Lkb1+/− mice) of the same compound?
Its value is “reduced HIF-1α levels similar to the basal levels seen in Lkb1^+/+ mice”.

And the “expression of HIF-1α targets Glut1, Hexokinase II, bNIP3 in polyps” value (HIF-1α; western blot, Lkb1+/− mice)?
Its value is “suppressed by rapamycin”.

And the “Ki67 staining of polyps (in words)” value [5]?
The value was “clear reduction in Ki67 staining”.

What about the “polyp burden (in words)” value [6] of the same compound?
Its value is “dramatic reduction in polyp burden”.

And the “expression of HIF-1α, Hexokinase II and bNIP3” value (Lkb1^−/− MEFs)?
Its value is “all downregulated by rapamycin treatment”.

And the “apoptosis as detected by cleaved caspase-3” value [7]?
Its value is “did not show evidence of apoptosis”.
